This is one part of the list.
Target: RRP12_Q5JTH9_839_CLLHIVR (UniProt Q5JTH9)
Assay: probe-labelled cysteine peptide fold change vs DMSO (competition) (log2 fold change); higher = less target engagement (more negative = stronger competition)
Conditions: THP-1, incubation time: 4 h
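Note: competitive chemoproteomic profiling in live THP-1 cells with an iodoacetamide desthiobiotin (IA-DTB) probe, comparing probe-labelled peptide intensities in compound-treated cells against DMSO-treated controls.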

Chains of the proteins cited; added tags and fusions are not shown. Lines headed by an entry give the natural chain unless they say otherwise; changes in a name come on top.
UniProt Q5JTH9: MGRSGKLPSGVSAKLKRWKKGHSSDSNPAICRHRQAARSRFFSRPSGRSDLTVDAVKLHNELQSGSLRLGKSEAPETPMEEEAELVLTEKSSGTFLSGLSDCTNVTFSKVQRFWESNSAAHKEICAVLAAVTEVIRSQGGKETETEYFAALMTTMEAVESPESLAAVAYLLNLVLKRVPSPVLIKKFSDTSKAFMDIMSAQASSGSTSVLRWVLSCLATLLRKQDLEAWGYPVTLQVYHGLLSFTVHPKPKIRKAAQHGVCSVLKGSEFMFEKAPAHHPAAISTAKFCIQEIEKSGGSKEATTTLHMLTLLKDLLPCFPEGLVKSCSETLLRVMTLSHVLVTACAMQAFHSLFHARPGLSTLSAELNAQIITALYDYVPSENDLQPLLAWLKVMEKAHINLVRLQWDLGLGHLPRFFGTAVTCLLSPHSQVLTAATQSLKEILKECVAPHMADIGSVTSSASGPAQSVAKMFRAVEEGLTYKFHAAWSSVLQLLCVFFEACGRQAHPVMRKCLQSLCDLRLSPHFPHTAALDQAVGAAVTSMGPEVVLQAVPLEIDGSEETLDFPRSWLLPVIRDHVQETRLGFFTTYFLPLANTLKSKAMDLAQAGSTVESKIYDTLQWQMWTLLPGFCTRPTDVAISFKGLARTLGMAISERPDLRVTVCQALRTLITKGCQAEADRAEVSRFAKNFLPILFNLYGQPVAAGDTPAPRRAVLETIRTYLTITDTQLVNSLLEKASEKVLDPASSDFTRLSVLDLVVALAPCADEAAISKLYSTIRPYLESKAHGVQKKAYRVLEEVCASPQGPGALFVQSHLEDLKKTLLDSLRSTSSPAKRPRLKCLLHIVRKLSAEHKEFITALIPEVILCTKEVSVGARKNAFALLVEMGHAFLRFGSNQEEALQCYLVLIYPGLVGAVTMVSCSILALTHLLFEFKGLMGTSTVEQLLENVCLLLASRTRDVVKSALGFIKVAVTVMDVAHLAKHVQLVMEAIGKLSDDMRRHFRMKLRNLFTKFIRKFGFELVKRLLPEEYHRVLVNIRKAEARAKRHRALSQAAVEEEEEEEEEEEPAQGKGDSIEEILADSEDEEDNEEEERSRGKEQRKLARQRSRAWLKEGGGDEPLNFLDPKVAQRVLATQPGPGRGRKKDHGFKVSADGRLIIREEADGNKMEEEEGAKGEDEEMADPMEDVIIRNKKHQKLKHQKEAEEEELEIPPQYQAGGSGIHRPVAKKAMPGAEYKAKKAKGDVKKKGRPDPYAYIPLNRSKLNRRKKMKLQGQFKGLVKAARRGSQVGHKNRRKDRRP

## CC1Cc2ccccc2N1C(=O)C1CCCN(C(=O)CCl)C1 (mixture of isomers) [TRIM25 ligand 11 (diastereomer mixture)]
10 µM
  probe-labelled cysteine peptide fold change: -0.209
50 µM
  probe-labelled cysteine peptide fold change: 0.038
